These are yes or no findings as the source states them, for the method shown. Binding seen in cells or lysates may run through a third protein.
Target: caveolin-1 (human (endogenous in TM cells)) (UniProt Q03135)
Assay: co-IP; Cav-1 antibody on Protein G Dynabeads; TM cell lysates (2% octylglucoside, 150 mM NaCl, 10 mM Tris-HCl pH 7.4, 0.5 mM EDTA, 0.1% Triton X-100) incubated 15 min at room temperature; input, bound and unbound fractions blotted for Cav-1 and TRPV4; control, MβCD- and MβCD:cholesterol-treated cells

Amino acid sequences for entries named in this document (tags omitted). A change or cut given only in a name is not applied to a line headed by its entry.
UniProt Q03135: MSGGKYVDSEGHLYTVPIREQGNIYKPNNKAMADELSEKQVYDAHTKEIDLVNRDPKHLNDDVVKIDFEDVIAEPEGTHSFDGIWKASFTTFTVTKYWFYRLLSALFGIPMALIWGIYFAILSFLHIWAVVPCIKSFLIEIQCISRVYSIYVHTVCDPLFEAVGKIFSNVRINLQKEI
UniProt Q9HBA0: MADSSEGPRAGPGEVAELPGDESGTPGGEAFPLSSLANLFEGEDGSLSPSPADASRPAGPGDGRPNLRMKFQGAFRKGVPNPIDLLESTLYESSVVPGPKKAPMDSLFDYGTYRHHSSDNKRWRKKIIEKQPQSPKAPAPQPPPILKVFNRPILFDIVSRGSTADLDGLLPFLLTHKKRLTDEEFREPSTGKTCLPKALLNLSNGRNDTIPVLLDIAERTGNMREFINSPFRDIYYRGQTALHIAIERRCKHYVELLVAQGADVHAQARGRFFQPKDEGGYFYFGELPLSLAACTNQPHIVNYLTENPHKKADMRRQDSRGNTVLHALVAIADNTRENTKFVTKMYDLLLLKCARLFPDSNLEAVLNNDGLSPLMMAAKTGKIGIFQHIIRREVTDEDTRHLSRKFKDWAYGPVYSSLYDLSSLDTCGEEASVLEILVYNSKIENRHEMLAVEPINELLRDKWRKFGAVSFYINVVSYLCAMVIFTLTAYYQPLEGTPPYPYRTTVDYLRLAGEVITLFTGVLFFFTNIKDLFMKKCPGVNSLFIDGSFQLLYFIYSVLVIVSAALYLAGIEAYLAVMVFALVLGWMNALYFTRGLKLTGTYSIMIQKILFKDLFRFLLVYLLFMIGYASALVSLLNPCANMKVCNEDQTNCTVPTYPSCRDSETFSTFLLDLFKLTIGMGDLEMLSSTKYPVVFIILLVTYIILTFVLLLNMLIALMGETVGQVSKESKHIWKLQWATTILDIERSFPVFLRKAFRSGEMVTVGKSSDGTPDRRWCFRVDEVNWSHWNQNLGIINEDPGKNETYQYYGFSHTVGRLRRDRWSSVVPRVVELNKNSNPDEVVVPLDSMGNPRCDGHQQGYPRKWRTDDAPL

full-length variants of transient receptor potential vanilloid isoform 4 (TRPV4) (from UniProt Q9HBA0 1-871)
binding: no binding

From publication PMC8633027
